No constants are given. Whether binding was seen depends on the method and setting. In cells and extracts the contact can be indirect. Some binding calls cover weakened binding; strength is not graded here.
Experiments:
[1] = target: Coro2 (human (endogenous in platelets)) (UniProt Q9BR76); experiment: co-IP; human platelet lysates (2% n-dodecyl β-D-maltoside lysis buffer, 20 mM HEPES, 30 mM NaCl, pH 7.4) incubated overnight at 4°C with 1 μg Coro1- or Coro2-specific antibody or same species control IgG, protein G Sepharose, washes with TBS-T, Western blot
[2] = target: Coro1 (human (endogenous in platelets)) (UniProt P31146); experiment: as above

Amino acid sequences for entries named in this document (tags omitted).
UniProt Q9BR76: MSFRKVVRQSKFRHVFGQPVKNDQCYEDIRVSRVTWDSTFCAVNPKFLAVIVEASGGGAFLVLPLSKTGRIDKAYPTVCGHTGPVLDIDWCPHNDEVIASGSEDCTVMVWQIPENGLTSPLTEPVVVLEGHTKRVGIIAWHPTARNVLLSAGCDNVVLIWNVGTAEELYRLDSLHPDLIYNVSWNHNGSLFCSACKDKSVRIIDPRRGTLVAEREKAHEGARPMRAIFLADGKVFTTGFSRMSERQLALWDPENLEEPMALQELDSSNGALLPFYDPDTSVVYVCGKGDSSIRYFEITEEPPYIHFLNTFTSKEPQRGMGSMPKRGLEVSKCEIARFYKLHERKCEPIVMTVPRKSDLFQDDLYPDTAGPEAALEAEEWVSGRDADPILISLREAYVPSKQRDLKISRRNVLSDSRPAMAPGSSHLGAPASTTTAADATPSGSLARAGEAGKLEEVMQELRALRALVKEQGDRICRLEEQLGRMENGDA
UniProt P31146: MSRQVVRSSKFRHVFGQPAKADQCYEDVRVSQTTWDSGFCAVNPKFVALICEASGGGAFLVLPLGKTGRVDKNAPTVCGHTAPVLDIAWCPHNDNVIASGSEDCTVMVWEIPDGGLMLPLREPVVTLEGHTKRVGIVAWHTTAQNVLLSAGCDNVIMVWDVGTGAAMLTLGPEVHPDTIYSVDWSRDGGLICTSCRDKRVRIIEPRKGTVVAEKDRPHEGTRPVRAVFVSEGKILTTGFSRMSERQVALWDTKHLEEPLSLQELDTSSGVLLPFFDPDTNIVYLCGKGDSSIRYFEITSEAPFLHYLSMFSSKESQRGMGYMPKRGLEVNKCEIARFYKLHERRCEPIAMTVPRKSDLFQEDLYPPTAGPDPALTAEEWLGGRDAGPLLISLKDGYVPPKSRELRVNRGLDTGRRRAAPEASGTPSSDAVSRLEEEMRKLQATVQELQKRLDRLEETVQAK
UniProt Q9ULV4: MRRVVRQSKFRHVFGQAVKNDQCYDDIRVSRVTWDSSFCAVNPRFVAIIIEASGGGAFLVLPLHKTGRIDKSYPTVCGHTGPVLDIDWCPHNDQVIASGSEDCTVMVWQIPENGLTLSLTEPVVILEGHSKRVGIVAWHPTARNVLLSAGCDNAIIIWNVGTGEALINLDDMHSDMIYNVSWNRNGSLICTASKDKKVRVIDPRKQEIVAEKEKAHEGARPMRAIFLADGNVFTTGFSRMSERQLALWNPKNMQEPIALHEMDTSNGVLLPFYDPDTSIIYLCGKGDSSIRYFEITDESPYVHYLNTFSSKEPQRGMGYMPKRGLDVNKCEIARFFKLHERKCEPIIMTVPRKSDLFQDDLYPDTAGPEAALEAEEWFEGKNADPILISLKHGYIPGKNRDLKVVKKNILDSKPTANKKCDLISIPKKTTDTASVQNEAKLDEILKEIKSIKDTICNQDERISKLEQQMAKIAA
UniProt P63092: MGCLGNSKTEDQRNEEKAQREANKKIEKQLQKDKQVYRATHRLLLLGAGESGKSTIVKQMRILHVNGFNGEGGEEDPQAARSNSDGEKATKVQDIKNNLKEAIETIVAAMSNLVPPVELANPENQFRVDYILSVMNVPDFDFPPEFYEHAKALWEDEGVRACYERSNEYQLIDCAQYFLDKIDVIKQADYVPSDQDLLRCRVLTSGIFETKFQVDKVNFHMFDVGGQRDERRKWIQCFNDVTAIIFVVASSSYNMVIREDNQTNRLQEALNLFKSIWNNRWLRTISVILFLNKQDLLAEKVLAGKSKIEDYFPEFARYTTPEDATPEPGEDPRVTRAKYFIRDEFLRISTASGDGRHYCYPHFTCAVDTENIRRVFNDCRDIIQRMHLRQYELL

Substance | binding [1] | binding [2]
Coro3 (from UniProt Q9ULV4 1-474) | binds | –
Gαs subunit of heterotrimeric G proteins (from UniProt P63092 1-394) | binds | binds

From publication PMC7497283
